Assay: general procedure: Fmoc solid-phase peptide synthesis; 2-chlorotrityl resin
Conditions: acetate salt (several conjugates)

BocHN-Cys(Trt)-[Lys(Boc)]4-octreotide(Lys-Boc)
step yield (coupling step): 22% yield

Lys-Boc octreotide 3-tritylmercaptopropionamide
step yield (late stage modification step): 93% yield

Lys-Fmoc octreotide hemiglutarate FMoc doxorubicin
conjugation yield (conjugation step): 96% yield

Lys-Boc octreotide acetate
step yield (late stage modification step, run 1): 67% yield
step yield (late stage modification step, run 2): 74% yield

Lys-Fmoc octreotide
step yield (late stage modification step): 71% yield
